Experimental data: PubChem BioAssay AID493246 (Drosophila RNAi Screening Center, 2011)
The screen tested about 21,000 reagents; below is a random part of those that have a named target and a result. Of all reagents, 429 (2%) were called active. 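Values are raw and not normalised between plates; calls rest on per-plate z-scores that were not deposited.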 Unmarked entries are inactive. Reagents against one gene are numbered here. Not given: the amount of reagent, the time to read-out.

Screen: 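Genes fly cells need to grow and stay alive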 (primary screen)
Cells: Drosophila Kc and S2R+ cells
Reagent: long dsRNA against Drosophila genes
Measured: 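Raw, unnormalised count of remaining cells in each well; per-plate z-scores of cell number underlie the calls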
Scale: Kc cell number and S2R+ cell number: higher = more cells remaining
Active means: 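Counted as a hit if cell number falls by a z-score of at least 3 within its plate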

{"target": "CG1468", "reagent no.": 1, "Kc cell number, rep 1": 6.22e5, "S2R+ cell number, rep 1": 8.53e5}
{"target": "Pkcdelta (Protein kinase C delta)", "reagent no.": 1, "Kc cell number, rep 1": 1.59e6, "Kc cell number, rep 2": 1.47e6, "S2R+ cell number, rep 1": 1.13e6, "S2R+ cell number, rep 2": 1.15e6}
{"target": "Pkcdelta (Protein kinase C delta)", "reagent no.": 2, "Kc cell number, rep 1": 1.57e6, "Kc cell number, rep 2": 1.62e6, "S2R+ cell number, rep 1": 1.05e6, "S2R+ cell number, rep 2": 1.18e6}
{"target": "CG14054", "reagent no.": 1, "Kc cell number, rep 1": 1.48e6, "Kc cell number, rep 2": 1.51e6, "S2R+ cell number, rep 1": 1.08e6, "S2R+ cell number, rep 2": 1.17e6}
{"target": "aln (allnighter)", "reagent no.": 1, "Kc cell number, rep 1": 1.56e6, "Kc cell number, rep 2": 1.39e6, "S2R+ cell number, rep 1": 9.77e5, "S2R+ cell number, rep 2": 1.26e6}
{"target": "CG32050 (retired record)", "reagent no.": 1, "Kc cell number, rep 1": 1.43e6, "Kc cell number, rep 2": 1.44e6, "S2R+ cell number, rep 1": 1.15e6, "S2R+ cell number, rep 2": 1.18e6}
{"target": "RpS19b (Ribosomal protein S19b)", "reagent no.": 1, "Kc cell number, rep 1": 1.56e6, "Kc cell number, rep 2": 1.65e6, "S2R+ cell number, rep 1": 9.30e5, "S2R+ cell number, rep 2": 1.03e6}
{"target": "CG7378", "reagent no.": 1, "Kc cell number, rep 1": 1.44e6, "Kc cell number, rep 2": 1.47e6, "S2R+ cell number, rep 1": 1.02e6, "S2R+ cell number, rep 2": 1.09e6}
{"target": "sad (shadow)", "reagent no.": 1, "Kc cell number, rep 1": 1.58e6, "Kc cell number, rep 2": 1.65e6, "S2R+ cell number, rep 1": 1.33e6, "S2R+ cell number, rep 2": 1.48e6}
{"target": "CG9593", "reagent no.": 1, "Kc cell number, rep 1": 1.38e6, "Kc cell number, rep 2": 1.37e6, "S2R+ cell number, rep 1": 1.11e6, "S2R+ cell number, rep 2": 1.20e6}
{"target": "Tsp42Ed (Tetraspanin 42Ed)", "reagent no.": 1, "Kc cell number, rep 1": 1.71e6, "Kc cell number, rep 2": 1.72e6, "S2R+ cell number, rep 1": 1.34e6, "S2R+ cell number, rep 2": 1.51e6}
{"target": "CG7656", "reagent no.": 1, "Kc cell number, rep 1": 1.93e6, "Kc cell number, rep 2": 1.97e6, "S2R+ cell number, rep 1": 1.29e6, "S2R+ cell number, rep 2": 1.36e6}
{"target": "CDase (Ceramidase)", "reagent no.": 1, "Kc cell number, rep 1": 5.32e5, "S2R+ cell number, rep 1": 8.53e5}
{"target": "CR31700 (pseudo)", "reagent no.": 1, "Kc cell number, rep 1": 6.09e5, "S2R+ cell number, rep 1": 8.76e5}
{"target": "CG1738", "reagent no.": 1, "Kc cell number, rep 1": 1.71e6, "Kc cell number, rep 2": 1.60e6, "S2R+ cell number, rep 1": 1.16e6, "S2R+ cell number, rep 2": 1.29e6}
{"target": "CG3437", "reagent no.": 1, "Kc cell number, rep 1": 1.43e6, "Kc cell number, rep 2": 1.47e6, "S2R+ cell number, rep 1": 1.17e6, "S2R+ cell number, rep 2": 1.28e6}
{"target": "GstD10 (Glutathione S transferase D10)", "reagent no.": 1, "Kc cell number, rep 1": 1.46e6, "Kc cell number, rep 2": 1.36e6, "S2R+ cell number, rep 1": 1.19e6, "S2R+ cell number, rep 2": 1.28e6}
{"target": "Ir94e (Ionotropic receptor 94e)", "reagent no.": 1, "Kc cell number, rep 1": 1.39e6, "Kc cell number, rep 2": 1.53e6, "S2R+ cell number, rep 1": 1.05e6, "S2R+ cell number, rep 2": 1.10e6}
{"target": "CG15734", "reagent no.": 1, "Kc cell number, rep 1": 1.60e6, "Kc cell number, rep 2": 1.49e6, "S2R+ cell number, rep 1": 1.09e6, "S2R+ cell number, rep 2": 1.20e6}
{"target": "ph-p (polyhomeotic proximal)", "reagent no.": 1, "Kc cell number, rep 1": 1.66e6, "Kc cell number, rep 2": 1.73e6, "S2R+ cell number, rep 1": 1.05e6, "S2R+ cell number, rep 2": 1.17e6}
{"target": "Als2 (Amyotrophic lateral sclerosis 2)", "reagent no.": 1, "Kc cell number, rep 1": 1.47e6, "Kc cell number, rep 2": 1.54e6, "S2R+ cell number, rep 1": 1.14e6, "S2R+ cell number, rep 2": 1.19e6}

Just “S2R+ cell number, rep 1”, for 3 of the entries above:
CG7378	1.02e6
sad (shadow)	1.33e6
CG9593	1.11e6
